Source: the supplement of paper PMC12578635
Some of the results follow. Cut-off read from the data, not from the text of the source: active = 150% or more and inactive = the rest. Many values rest on one well or one pass, so single values are uncertain.

Tested on: Staphylococcus aureus JE2-lux inside RAW 264.7 macrophages
Assay: intracellular bacterial bioluminescence relative to DMSO vehicle; higher = higher intracellular bacterial metabolic activity
Details: 10 µM; treatment time 4 h; gentamicin 50 µg/ml
Method: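 RAW 264.7 macrophages infected with bioluminescent MRSA JE2-lux (MOI 100) were dispensed into 384-well plates with 10 µM compound in the presence of 50 µg/ml gentamicin. After 4 h at 37 °C, bacterial bioluminescence (a proxy for intracellular bacterial metabolic activity) and host cell viability (CellTiter-Fluor) were read and normalised to 0.1% DMSO vehicle controls. Single-pass screen of the UNC CICBDD kinase-targeted library (>4,700 compounds).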

Intracellular bacterial bioluminescence, inactive:
CC(C)CCN1C(=O)CCc2cc(NS(=O)(=O)c3ccc(F)c(Cl)c3)ccc21 120%, Cc1nn(C(C)CC(=O)NC(c2ccccc2)c2cccnc2)c(C)c1C (stereo not drawn) 93.4%, Nc1ncnc(Sc2nc3ccccc3[nH]2)c1[N+](=O)[O-] 16.3%, O=C(CSc1nc2ccccc2cc1CC1CCCC1)NCc1ccccc1 103%, CCOc1ccccc1Nc1nc(-c2nnc(-c3ccc(C)cc3)o2)nc2ccccc12 119%, COc1ccc(N2C(=O)c3nccnc3C2=O)cc1OC 94.1%, Cc1sc(C)c(S(=O)(=O)N2CCc3ccccc3C2)c1-c1cc(C(F)(F)F)on1 103%, COc1ccc(NC(=O)Cn2cnc3c(cnn3-c3ccccc3)c2=O)cc1 112%, Fc1cccc(-c2nnn3c2nc(N2CCCCC2)c2cc(Cl)ccc23)c1 148%, CC(C)(C)NC(=O)C(c1cccnc1)N(C(=O)c1csnn1)c1ccc(F)cc1 (stereo not drawn) 110%, CC1CCN(C(=O)c2ccc(NC(=O)C(=O)Nc3ccc(F)c(Cl)c3)cc2)CC1 80.3%, CC(C)c1ccc(Cn2c(=O)c3sccc3n3c(=S)[nH]nc23)cc1 91.6%, Cc1ccc(-n2ncc(C(=O)NCCN3CCc4ccccc4C3)c2C2CCNCC2)c(C)c1 126%, O=C(/C=C\c1ccc([N+](=O)[O-])cc1)N(Cc1cccnc1)c1nc2c(F)cc(F)cc2s1 94.7%, COc1ccc(Cl)cc1Nc1ncnc2sc(C)c(S(=O)(=O)N3CCCCC3)c12 116%, O=C(NCC1COc2ccccc2O1)c1cc2c(=O)oc3ccccc3c2s1 (stereo not drawn) 114%, Cc1ccc(C)c2sc(N(Cc3cccnc3)C(=O)Cc3ccc(F)cc3)nc12 47.6%, Cc1csc(NC(=O)CSc2nnc(-c3ccccn3)n2-c2ccc(Cl)cc2)n1 68.7%, O=C(NCc1ccccc1)NC1(C(=O)NCc2ccc3c(c2)OCO3)CCCCC1 135%, Cc1c(C)n(Cc2ccccc2)c2ncn3nc(-c4ccc(Cl)cc4)nc3c12 129%, COc1cccc(Nc2nc(N)nc(CN3CCc4ccccc4C3)n2)c1 51.1%, COc1ccc(OC)c2sc(N(Cc3cccnc3)C(=O)C3COc4ccccc4O3)nc12 (stereo not drawn) 94.2%, CCn1c(=O)[nH]c(=O)c2cnc(-c3ccc(Cl)cc3)nc21 135%, O=C(Nc1nc2c(F)cc(F)cc2s1)c1ccc2ccccc2c1 92.1%, COC(=O)C(Cc1ccc(O)cc1)NC(=O)CCOc1ccc(OC)cc1 (stereo not drawn) 129%, COc1ccc2cc(CCNC(=O)CCC3CCCC3)c(=O)[nH]c2c1 68%, COc1ccc(-n2c(N)cc(=O)nc2SCC(=O)N2CCCc3ccccc32)cc1 121%, Cc1ccc(CNC(=O)C(C)C2CCN(C(=O)c3cc4ccccc4[nH]3)CC2)cc1 (stereo not drawn) 34.9%, CC/N=C1\S/C(=C2\C(=O)Nc3ccccc32)C(=O)N1CC 104%, CC(=O)Nc1cc(-c2noc(-c3ccsc3)n2)ccc1-n1ccnc1 91.5%, COc1ccccc1-c1cc(C(=O)NCc2ccccc2)c2c(-c3ccccc3)[nH]nc2n1 87.6%, COc1ccccc1N1CCN(C(=O)Cn2cnc3onc(-c4ccc(C)cc4)c3c2=O)CC1 108%, Cn1c(=O)c2c(nc(S)n2Cc2ccc(F)cc2)n(C)c1=O 114%, CCN1CCN(c2nc3ncn(CC(=O)NCc4ccccc4Cl)c(=O)c3s2)CC1 94.9%, O=C(CSc1nnc2c(n1)-c1cccc3cccc-2c13)Nc1cc(Cl)ccc1Cl 104%, CCc1nc(SCC(=O)NCC2CCCO2)c2c(=O)n(C)c(=O)n(C)c2n1 (stereo not drawn) 110%, C=CCOc1ccccc1NC(=O)c1ccnc2ccc(Cl)cc12 96.7%, CCn1nc(C)c(CCNC(=O)c2cc3c(=O)n(CCOC)ccc3nc2C)c1C 142%, CN1C(=O)N(C(=O)c2ccc(F)cc2F)c2cccnc2N1C 90.1%, Nn1c(SCc2cccc(Cl)c2)nncc1=O 67.3%, CCOc1ccccc1Nc1nc(C)nc2c1c(C)c(C)n2-c1ccccc1 103%, O=C(Nc1cccnc1)C(=O)Nc1cccc2ccccc12 90.7%, Cc1ccc(-n2nnc3c(SCC(=O)Nc4ccc(C)c(Cl)c4)ncnc32)cc1 105%, COc1ccc(CNC(=O)c2cnc3cc4c(cc3c2O)OCCO4)cc1 89.9%, CCOc1cc(/C=N/Nc2ncnc3[nH]cnc23)ccc1O 101%, Cc1ccc(S(=O)(=O)N2CCCc3ccc(NS(=O)(=O)c4ccc(F)cc4C)cc32)cc1 86.8%, C=CCc1cccc2cc(C(N)=O)/c(=N\Cc3ccccc3)oc12 103%, Cc1ccc(-c2noc(CCC(=O)Nc3ccc(CCc4nc5cc(C)ccc5[nH]4)cc3)n2)cc1 103%, CCOC(=O)COc1ccccc1C1CC(c2ccccc2)=NN1C(=O)c1cccs1 (stereo not drawn) 90.6%, CC(C)c1ccc2nc3sc(C(=O)NCC4CCCO4)c(N)c3cc2c1 (stereo not drawn) 112%, Cn1c(NC(=O)/C=C\c2ccccc2)cc(=O)n(C)c1=O 109%, CCCc1cc(CNC(=O)c2c(-c3ccncc3)noc2C)on1 103%, Cc1ccc(-n2c(=O)c3cccnc3n2CC(=O)N2CCCCC2C)cc1 (stereo not drawn) 77.9%, COc1ccc2c(c1OC)C(=O)OC2Nc1cccc(F)c1 (stereo not drawn) 106%, CCN1CCN(CC(=O)NC2CCCC2)C(=O)C1=O 110%, Cc1ccccc1-n1c(C)c(C)c2c1ncn1nc(-c3ccccc3O)nc21 92%, COc1ccc(Cl)c(NC(=O)c2sc3nc(-c4cccnc4)ccc3c2N)c1 106%, O=C(c1ccc2c(c1)OCO2)N1CCN(c2ccc(Nc3cccnc3)nn2)CC1 94.2%
